For one substance, binding results are on record in article doi:10.1101/591974.

Results are given in words; binding and its absence hold for the method and conditions named. Binding seen in cells or lysates may run through a third protein. Binding can be weak; no strength is given. Where a sequence is shown, tags or fusion partners need not be part of it.

In assay [1] the target is T1, GST-Hs-RAB3A-Q81L (human) (UniProt P20336).
T1 sequence: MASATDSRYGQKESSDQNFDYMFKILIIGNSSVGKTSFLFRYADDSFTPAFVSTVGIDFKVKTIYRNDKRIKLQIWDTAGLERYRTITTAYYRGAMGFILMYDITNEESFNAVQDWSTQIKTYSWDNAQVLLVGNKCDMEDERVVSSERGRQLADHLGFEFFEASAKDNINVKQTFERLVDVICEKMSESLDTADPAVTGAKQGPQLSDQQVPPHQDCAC
As to the kind of experiment: pull-down.

A further assay concerns the target T2, GST-Rn-RAB27A-Q78L (Rn) (UniProt P23640).
T2 sequence: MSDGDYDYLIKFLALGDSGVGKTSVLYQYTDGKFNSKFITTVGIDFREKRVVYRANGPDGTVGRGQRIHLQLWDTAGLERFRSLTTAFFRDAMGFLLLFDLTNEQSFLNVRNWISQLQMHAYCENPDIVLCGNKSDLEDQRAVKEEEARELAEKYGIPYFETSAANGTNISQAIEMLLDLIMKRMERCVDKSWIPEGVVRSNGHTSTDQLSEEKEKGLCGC
The assay can be described thus: pull-down.

Consider “AcGFP1-tagged full-length Hs-SPIRE1 (human)”, for which the binding entry is “binds weakly” in assay [1] and “binds” in the assay with GST-Rn-RAB27A-Q78L (Rn).
